Results reported in PMC9988979.

Biological target: T1, Flag-tagged ACOX1 (acyl-CoA oxidase 1) (human) (UniProt Q15067)
T1 sequence: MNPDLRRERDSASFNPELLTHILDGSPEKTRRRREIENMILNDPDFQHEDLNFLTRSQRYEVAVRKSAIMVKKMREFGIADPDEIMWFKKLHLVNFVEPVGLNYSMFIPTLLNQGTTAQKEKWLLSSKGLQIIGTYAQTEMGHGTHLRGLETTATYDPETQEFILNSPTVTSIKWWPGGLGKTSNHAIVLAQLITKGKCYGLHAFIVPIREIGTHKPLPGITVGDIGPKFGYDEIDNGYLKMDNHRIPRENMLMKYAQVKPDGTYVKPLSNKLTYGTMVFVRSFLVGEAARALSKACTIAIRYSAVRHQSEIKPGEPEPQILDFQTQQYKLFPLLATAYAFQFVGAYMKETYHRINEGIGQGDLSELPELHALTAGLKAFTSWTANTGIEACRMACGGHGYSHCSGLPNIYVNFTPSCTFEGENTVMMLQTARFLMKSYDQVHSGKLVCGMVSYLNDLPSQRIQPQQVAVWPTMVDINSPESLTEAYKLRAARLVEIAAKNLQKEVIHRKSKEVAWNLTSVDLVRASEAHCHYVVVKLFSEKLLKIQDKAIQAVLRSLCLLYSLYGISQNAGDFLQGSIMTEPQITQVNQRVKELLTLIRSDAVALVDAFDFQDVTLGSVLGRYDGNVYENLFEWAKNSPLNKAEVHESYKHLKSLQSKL
Assay: affinity purification with mass spectrometry; Flag-ACOX1 expressed in HEK293T, precipitated with anti-Flag agarose beads, SDS-PAGE bands digested and analysed by MS; hit taken from the overlap with published MS data

- binding: binds
B1: DUSP14, endogenous (enzyme, UniProt O95147 1-198)
chain: MSSRGHSTLPRTLMAPRMISEGDIGGIAQITSSLFLGRGSVASNRHLLQARGITCIVNATIEIPNFNWPQFEYVKVPLADMPHAPIGLYFDTVADKIHSVSRKHGATLVHCAAGVSRSATLCIAYLMKFHNVCLLEAYNWVKARRPVIRPNVGFWRQLIDYERQLFGKSTVKMVQTPYGIVPDVYEKESRHLMPYWGI

No constants are given. Whether binding was seen depends on the method and setting. Binding seen in cells or lysates may run through a third protein. These calls come from enrichment with a bait or labelling near it, and not all partners need be listed. Sequences can lack the tags named with a protein.
